PubChem BioAssay AID1487 (National Center for Advancing Translational Sciences (NCATS), 2009)
This is one part of the list. These are further read-outs of the screen, such as a control signal, another cell line or another target. No call is given for them. Compounds called inactive in the main read-out are mostly missing here. Potencies come from curve fits of mixed quality, noted in brackets.

Test: qHTS Assay for Modulators of Lamin A Splicing
Details: HeLa LMNA splicing GFP/RFP minigene ratio, 48 h
Summary of the method: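 S3 HeLa stable clones carrying a lamin A-EGFP splicing minigene plus DsRed2 were seeded at 600 cells/well in Opti-MEM with 2% FBS, pin-dosed and incubated 48 h at 37°C. Acumen cytometry (488 nm) gave the GFP/RFP total-intensity ratio.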

[1] = measured here: RFP viability control channel
[2] = measured here: GFP splicing reporter channel

For `O=C1C(Cc2ccc(F)cc2)SC(=Nc2ccccc2)N1c1ccccc1` (stereo not given), the AC50 [1] was 10 µM [rising, partial curve].
For `Cn1c(SCCCC(=O)c2ccc(Br)cc2)nnc1-c1ccncc1`, the AC50 [2] was 35.5 µM [rising, single point] and the AC50 [1] was 35.5 µM [rising, single point].
In the case of `COc1cccc(-n2c(N)c(C#N)c3ccc([N+](=O)[O-])cc3c2=O)c1`, the AC50 [1] is reported as 7.94 µM [rising, partial curve, poor fit].
With `CCCS(=O)(=O)N1CCCC(C(=O)NCCCOC)C1` (stereo not given) the AC50 [1] was 0.00316 µM [falling, full curve, poor fit].
In the case of `C=CCSc1nc(-c2ccc(OC)cc2)c(C#N)c(=O)n1CC=C`, the AC50 [1] is reported as 7.08 µM [falling, single point].
With `c1ccc(CNc2ncncc2-c2ccoc2)cc1` the AC50 [2] was 7.94 µM [falling, partial curve].
With `CCN(CC)CCN(C(=O)c1ccc([N+](=O)[O-])cc1)c1nc2ccc(OC)cc2s1` the AC50 [2] was 0.0708 µM [rising, full curve, poor fit].
In the case of `CCCCn1c(CN2CCN(c3ccccc3)CC2)nc2c1c(=O)n(C)c(=O)n2C`, the AC50 [2] is reported as 2.82 µM [rising, full curve] and the AC50 [1] is reported as 3.16 µM [rising, full curve].
In the case of `CCCN=C1CC(C)(C)CC(=O)/C1=C(/O)CCC`, the AC50 [1] is reported as 0.0447 µM [falling, full curve, poor fit].
With `O=C(NNc1nc(-c2ccccc2)cs1)c1ccc(F)cc1` the AC50 [1] was 11.2 µM [rising, partial curve].
In the case of `O=C(Nc1nc(-c2cc3ccccc3o2)cs1)c1ccc(S(=O)(=O)N2CCCC2)cc1`, the AC50 [2] is reported as 6.31 µM [rising, partial curve, poor fit] and the AC50 [1] is reported as 3.98 µM [rising, partial curve].
With `Cc1ccc(-c2cc(C(=O)N3CCN(S(=O)(=O)c4ccc(Br)cc4)CC3)[nH]n2)cc1C` the AC50 [1] was 28.2 µM [falling, partial curve].
With `CC(=O)NCCNc1ncnc2ccc(-c3c(C)noc3C)cc12` the AC50 [2] was 11.2 µM [falling, partial curve].
In the case of `O=C(Nc1cnn(Cc2ccc(Cl)c(Cl)c2)c1)c1nc2ncccn2n1`, the AC50 [2] is reported as 35.5 µM [rising, single point] and the AC50 [1] is reported as 31.6 µM [rising, single point].
With `Cc1ccc(Nc2nnc(C)c(=O)[nH]2)cc1` the AC50 [2] was 0.794 µM [rising, full curve] and the AC50 [1] was 1.58 µM [rising, partial curve].
In the case of `COC(=O)c1cc(C)nc2c1c(=O)nc(SCc1cccc(C)c1)n2C1CC1`, the AC50 [2] is reported as 0.0251 µM [rising, full curve, poor fit].
For `COc1cccc(OCC(=O)Nc2cc(Cl)ccc2Oc2ccccc2)c1`, the AC50 [2] was 12.6 µM [rising, single point] and the AC50 [1] was 22.4 µM [rising, single point].
In the case of `CC1=CC2(O)OCCN(CCO)C2=CC1=O` (stereo not given), the AC50 [2] is reported as 35.5 µM [falling, single point] and the AC50 [1] is reported as 35.5 µM [falling, single point].
For `CC(C)Cn1c(-c2csc3ccccc23)n[nH]c1=S`, the AC50 [2] was 31.6 µM [rising, single point].
For `O=C(Nc1ccc(N2CCC(c3ccccc3)C2)c(C(=O)O)c1)c1ccc(Cl)cc1` (stereo not given), the AC50 [1] was 0.178 µM [falling, full curve, poor fit].
With `O=C(CN1CCCC1)Nc1ccc([N+](=O)[O-])cc1` the AC50 [1] was 0.0355 µM [falling, full curve, poor fit].
For `NC(N)=NC(N)=Nc1ccccc1`, the AC50 [1] was 5.62 µM [falling, single point].
For `Cc1nc(Nc2nc(CSc3nc4ccccc4[nH]3)cc(=O)[nH]2)nc2ccccc12`, the AC50 [2] was 35.5 µM [falling, single point] and the AC50 [1] was 35.5 µM [falling, single point].
For `O=C(O)CCn1cc(/C=C/C(=O)c2ccc(Cl)cc2)c(-c2ccc(Br)cc2)n1`, the AC50 [2] was 35.5 µM [falling, single point] and the AC50 [1] was 3.98 µM [rising, partial curve].
With `CC(C)c1cnc2c(c1SCC(=O)NCc1ccccc1)c(=O)n(C)c(=O)n2C` the AC50 [2] was 8.91 µM [rising, partial curve, poor fit] and the AC50 [1] was 28.2 µM [rising, partial curve].
In the case of `COc1ccccc1Cc1nc2ccccc2nc1SCC(=O)Nc1cccc(Cl)c1C`, the AC50 [2] is reported as 0.126 µM [rising, full curve].
In the case of `COc1cc(CNn2cn[nH]c2=S)cc(Cl)c1OCc1ccc(F)cc1`, the AC50 [1] is reported as 1.26 µM [rising, partial curve, poor fit].
With `COc1cccc(/C=N/N2CCN(c3ccncc3S(=O)(=O)N3CCCCC3)CC2)c1` the AC50 [2] was 0.447 µM [rising, partial curve, poor fit] and the AC50 [1] was 12.6 µM [rising, partial curve, poor fit].
With `CCc1c(C#N)c(SCc2c(C)noc2C)nc2c1C(=O)CC(C)(C)C2` the AC50 [2] was 12.6 µM [rising, partial curve] and the AC50 [1] was 15.8 µM [rising, single point].
For `N#Cc1c(N)nc2c(c1-c1ccc3c(c1)OCO3)CCc1ccccc1-2`, the AC50 [2] was 3.16 µM [falling, partial curve] and the AC50 [1] was 2.82 µM [falling, partial curve].
With `O=C(NCCN1CCN(S(=O)(=O)c2ccc([N+](=O)[O-])cc2)CC1)C(=O)Nc1ccccc1` the AC50 [1] was 0.0562 µM [rising, full curve, poor fit].
In the case of `O=C(Nc1nnc(CC2=CCCCC2)s1)c1cccs1`, the AC50 [1] is reported as 22.4 µM [rising, single point].
In the case of `CN(C)S(=O)(=O)c1cccc(NC(=O)CSc2nc3ccccc3n2-c2ccccc2)c1`, the AC50 [1] is reported as 25.1 µM [rising, single point].
With `Cc1ccc(CNC(=O)Cn2cc(S(=O)(=O)Cc3ccccc3F)c3ccccc32)cc1` the AC50 [2] was 12.6 µM [falling, single point] and the AC50 [1] was 0.0398 µM [falling, full curve, poor fit].
With `Cc1ccc(/C=N/N2CCN(c3ccccn3)CC2)cc1` the AC50 [2] was 11.2 µM [rising, partial curve].
In the case of `O=S(=O)(CCOc1ccccc1)c1nc2ccccc2[nH]1`, the AC50 [2] is reported as 28.2 µM [falling, single point].
In the case of `CCn1c(=O)n(CC)c2cc(N3CCCCC3)c(NC(=O)Nc3ccccc3C(F)(F)F)cc21`, the AC50 [1] is reported as 0.112 µM [falling, full curve].
With `O=C(OCC(=O)N1CCN(C(=O)c2ccco2)CC1)c1cc(-c2cccc(Br)c2)nc2ccccc12` the AC50 [1] was 22.4 µM [rising, single point].
For `Cc1[nH]c2ccccc2c1SCc1nnc(SCc2ccc(Cl)cc2)n1C`, the AC50 [2] was 35.5 µM [rising, single point] and the AC50 [1] was 20 µM [rising, single point].
For `Cc1nnn(C23CC4CC(CC(CC(=O)Nc5ccc(C)c(Cl)c5)(C4)C2)C3)n1`, the AC50 [2] was 8.91 µM [rising, partial curve] and the AC50 [1] was 12.6 µM [rising, partial curve].
In the case of `COc1ccc2cc(/C=C3\SC(=S)NC3=O)c(N3CCOCC3)nc2c1`, the AC50 [1] is reported as 2.82 µM [rising, full curve].
For `CCOC(=O)c1c(-c2ccc(OC)cc2)csc1NC(=O)CSc1ncnc2sccc12`, the AC50 [1] was 25.1 µM [rising, partial curve].
With `COCCCNC(=O)c1cc(-c2cccnc2)nc2ccc(S(=O)(=O)N3CCC(C)CC3)cc12` the AC50 [1] was 0.447 µM [falling, full curve].
For `O=C(CN1CCN(c2ccc([N+](=O)[O-])cc2)CC1)Nc1nccs1`, the AC50 [1] was 12.6 µM [rising, single point].
With `CN(Cc1ccccc1)Cc1nc2scc(-c3ccccc3)c2c(=O)[nH]1` the AC50 [1] was 35.5 µM [rising, single point].
With `COc1ccccc1NC(=O)N1CCN(c2cc(-c3ccccc3)nc3ncnn23)CC1` the AC50 [2] was 15.8 µM [rising, partial curve].
With `COc1ccc(/C=C/C(=O)c2ccc3c(c2)OCO3)c(OC)c1` the AC50 [2] was 35.5 µM [rising, single point] and the AC50 [1] was 35.5 µM [rising, single point].
In the case of `CCn1cc(C2=NOC(C(=O)Nc3ccccc3C(=O)OC)C2)c(C)n1` (stereo not given), the AC50 [2] is reported as 11.2 µM [rising, partial curve] and the AC50 [1] is reported as 12.6 µM [rising, single point].
With `O=[N+]([O-])c1cc(Br)c(OCc2nnc(-c3ccccc3)o2)c(Br)c1` the AC50 [1] was 2 µM [falling, partial curve].
In the case of `c1ccc(C2Nc3ccccc3Oc3ccccc32)cc1` (stereo not given), the AC50 [1] is reported as 15.8 µM [rising, single point].
For `CCOC(=O)c1c(NC(=O)CSc2nnc(C)s2)sc2c1CCC(C)C2` (stereo not given), the AC50 [2] was 22.4 µM [rising, single point] and the AC50 [1] was 25.1 µM [rising, single point].
For `COc1ccc(/C=C/C(=O)c2ccc3c4c(cccc24)CC3)cc1`, the AC50 [2] was 35.5 µM [falling, single point].
For `CC/C(=N/Nc1ccccc1C)c1cnnc(SC)n1`, the AC50 [2] was 35.5 µM [rising, single point].
In the case of `O=c1c(/C=N/N2CCOCC2)c(C(F)(F)F)[nH]n1-c1ccccc1`, the AC50 [1] is reported as 0.316 µM [falling, partial curve].
With `Cc1onc(-c2c(F)cccc2Cl)c1C(=O)N1CCN(c2ncccn2)CC1` the AC50 [2] was 6.31 µM [rising, single point].
In the case of `CC(C)(C)NC(=O)CSc1nc(N)c(NC(=O)c2ccccc2F)c(=O)[nH]1`, the AC50 [2] is reported as 0.0794 µM [rising, partial curve, poor fit].
